These are yes or no findings as the source states them, for the method shown. Some entries that bind do so weakly or less than the wild type. Values belong to the binder of their own block, whether it stands above or below them.
Molecular target: human NKG2D expressed on EL4 cells (human) (UniProt P26718)
Assay: flow cytometry on EL4 cells expressing human NKG2D

Amino acid sequences for entries named in this document (tags omitted).
UniProt P26718: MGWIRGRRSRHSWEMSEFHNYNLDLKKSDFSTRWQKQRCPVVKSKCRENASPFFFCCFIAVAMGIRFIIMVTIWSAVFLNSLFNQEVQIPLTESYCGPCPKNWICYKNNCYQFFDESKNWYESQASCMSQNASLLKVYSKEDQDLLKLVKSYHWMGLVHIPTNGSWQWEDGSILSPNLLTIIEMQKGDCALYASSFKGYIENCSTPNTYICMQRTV

- binding: binds
B1: A49-TriNKET-FLT3-IMCEB10 (bispecific antibody, V domains shown)
VH 1: EVQLVESGGGLVKPGGSLRLSCAASGFTFSSYSMNWVRQAPGKGLEWVSSISSSSSYIYYADSVKGRFTISRDNAKNSLYLQMNSLRAEDTAVYYCARGAPMGAAAGWFDPWGQGTLVTVSS
VL 1: DIQMTQSPSSVSASVGDRVTITCRASQGISSWLAWYQQKPGKAPKLLIYAASSLQSGVPSRFSGSGSGTDFTLTISSLQPEDFATYYCQQGVSFPRTFGGGTKVEIK
VH 2: EVQLVQSGAEVKKPGASVKVSCKASGYTFTSYYMHWVRQAPGQGLEWMGIINPSGGSTSYAQKFQGRVTMTRDTSTSTVYMELSSLRSEDTAVYYCARGVGAHDAFDIWGQGTTVTVSSA
VL 2: DVVMTQSPLSLPVTPGEPASISCRSSQSLLHSNGNNYLDWYLQKPGQSPQLLIYLGSNRASGVPDRFSGSGSDTDFTLQISRVEAEDVGVYYCMQGTHPAISFGQGTRLEIKR

- binding: binds
B2: A49-TriNKET-FLT3-4G8 (bispecific antibody, V domains shown)
VH 1: B1 VH 1
VL 1: B1 VL 1
VH 2: QVQLQQPGAELVKPGASLKLSCKSSGYTFTSYWMHWVRQRPGHGLEWIGEIDPSDSYKDYNQKFKDKATLTVDRSSNTAYMHLSSLTSDDSAVYYCARAITTTPFDFWGQGTTLTVSS
VL 2: DIVLTQSPATLSVTPGDSVSLSCRASQSISNNLHWYQQKSHESPRLLIKYASQSISGIPSRFSGSGSGTDFTLSINSVETEDFGVYFCQQSNTWPYTFGGGTKLEIKR

Source: patent publication US20200165344A1
